Test results as given in publication PMC11103506.

Amino acid sequences for entries named in this document (tags omitted).
UniProt P29351: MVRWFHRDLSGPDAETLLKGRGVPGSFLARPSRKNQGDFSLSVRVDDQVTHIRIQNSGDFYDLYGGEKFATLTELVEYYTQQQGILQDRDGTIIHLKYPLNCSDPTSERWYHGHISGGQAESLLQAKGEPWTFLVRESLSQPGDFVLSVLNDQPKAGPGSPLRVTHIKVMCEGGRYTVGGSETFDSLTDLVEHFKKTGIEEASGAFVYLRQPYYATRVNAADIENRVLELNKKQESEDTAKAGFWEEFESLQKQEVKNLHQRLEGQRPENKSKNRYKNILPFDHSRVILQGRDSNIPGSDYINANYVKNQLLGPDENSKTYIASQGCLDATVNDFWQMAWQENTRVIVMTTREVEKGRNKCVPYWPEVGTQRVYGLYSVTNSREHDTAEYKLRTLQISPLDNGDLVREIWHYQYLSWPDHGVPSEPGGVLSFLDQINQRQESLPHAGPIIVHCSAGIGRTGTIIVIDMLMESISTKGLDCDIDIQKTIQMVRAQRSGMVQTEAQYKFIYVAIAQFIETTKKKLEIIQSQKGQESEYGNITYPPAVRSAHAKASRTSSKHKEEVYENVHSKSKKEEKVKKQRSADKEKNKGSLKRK

T1: complement C1Q binding protein (C1qbp), endogenous in Raw264.7 macrophages (mouse (endogenous in Raw264.7)) (UniProt O35658)
T1 sequence: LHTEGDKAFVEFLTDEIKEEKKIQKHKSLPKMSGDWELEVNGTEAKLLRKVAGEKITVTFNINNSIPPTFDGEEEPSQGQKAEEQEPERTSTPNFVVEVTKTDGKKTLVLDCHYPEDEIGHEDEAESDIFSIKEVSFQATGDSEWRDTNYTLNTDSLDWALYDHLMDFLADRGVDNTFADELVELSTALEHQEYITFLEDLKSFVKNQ


Molecular target: T1, complement C1Q binding protein (C1qbp), endogenous in Raw264.7 macrophages (mouse (endogenous in Raw264.7))
Assay: affinity purification with mass spectrometry; Raw264.7 whole-cell lysate incubated with anti-C1qbp antibody or control IgG overnight at 4 °C, then Protein A/G magnetic beads for 4 h; LC/MS/MS

binding	Molecule
binds	tyrosine phosphatase Src homologous region 2 containing phosphatase 1 (Shp1), endogenous in Raw264.7 (from UniProt P29351 1-595) (enzyme)
binds	CD16 receptor (FcγRIIIA/CD16), endogenous in Raw264.7 (receptor, UniProt P08508 31-261) ALPKAVVKLDPPWIQVLKEDMVTLMCEGTHNPGNSSTQWFHNGRSIRSQVQASYTFKATVNDSGEYRCQMEQTRLSDPVDLGVISDWLLLQTPQRVFLEGETITLRCHSWRNKLLNRISFFHNEKSVRYHHYKSNFSIPKANHSHSGDYYCKGSLGSTQHQSKPVTITVQDPATTSSISLVWYHTAFSLVMCLLFAVDTGLYFYVRRNLQTPREYWRKSLSIRKHQAPQDK

Results are given in words; binding and its absence hold for the method and conditions named. Binding seen in cells or lysates may run through a third protein. These calls come from enrichment with a bait or labelling near it, and not all partners need be listed.
